# Source: PubChem BioAssay AID540335 (Broad Institute, 2011)
# Screen size: about 1,300 compounds; about 270 (21%) were called active.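 How the source made its calls: active means dose-dependent rise or fall in viability, either side of zero, with half-maximal concentration at or below a set limit; inconclusive means flat curve at 30 to 70% viability loss, or poor fit; inactive means flat within 30% either way, or potency beyond limit.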 The list shows a part of the results. Measured potencies and affinities stand elsewhere.
# Assay: proliferation inhibition in MITF-low A375 cells – cell-based, cherry-pick samples, set 2, counter-screen for MITF modulator project, dose response (AID 540335);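 further: A375 human melanoma cells which do not depend on MITF; 0% = median of neutral control wells and 100% = double that signal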
# Details: CellTiter-Glo ATP luminescence, 24 h; at 35 µM (top of the series)
row,Compound,"activity change, negative = decreased viability"
1,Cc1ccc2[nH]c(=O)c(CN(CCCN(C)C)C(=O)Nc3cccc(Cl)c3)cc2c1,inactive: -48%
2,Cc1ccc(NC(=O)CN(C)C(=O)Cn2ncc(Cl)c(Cl)c2=O)cc1,inactive: 69.3%
3,COc1ccccc1OCCN1CSC(=S)N(C)C1,inactive: 6.44%
4,CCOC(=O)N1CCC(NC(=O)C2CCCN(Cc3nc(-c4cccc(C)c4)oc3C)C2)CC1 (stereo not given),inactive: -3.74%
5,CCN(CC)CCNC(=O)c1ccc(NC(=O)c2cccc(S(=O)(=O)N3c4ccccc4CC3C)c2)cc1 (stereo not given),inactive: -12.4%
6,c1ccc(CSc2nnc(-c3ccco3)n2Cc2ccco2)cc1,inactive: 6.17%
7,COc1cc(OC)cc(C(=O)N[C@H](C(=O)Nc2nc3ccccc3[nH]2)C(C)C)c1,inactive: 9.07%
8,Cc1ccc2sc(N(CCCN(C)C)C(=O)c3ccc(S(=O)(=O)N(C)C4CCCCC4)cc3)nc2c1C,inactive: -39.9%
9,CCn1c(C)cc(C(=O)CN2C(=O)c3ccccc3S2(=O)=O)c1C,inactive: 2.06%
10,O=[N+]([O-])c1ccc(Sc2cc[n+]([O-])c3ccccc23)c([N+](=O)[O-])c1,inactive: -2.51%
11,CCOc1ccc(-c2noc(CCC(=O)O)n2)cc1,inactive: 5.81%
12,Cc1cccc(NC(=O)Cc2ccc(Br)cc2)n1,inactive: 11.2%
13,C=C1CCC[C@]2(C)C[C@H]3OC(=O)C(CN4CCCCC4CO)[C@H]3CC12 (stereo not given in full),inactive: -23.8%
14,COc1ccc2nc(C)cc(SCC(=O)N/N=C/c3ccc(O)cc3O)c2c1,inactive: -29.4%
15,COc1cccc(NC(=O)Nc2cccc(C(=O)O)c2)c1,inactive: 1.68%
16,Cc1ccc(C2CC(C(F)(F)F)n3nc(C(=O)NCc4c(C)nn(C)c4C)c(Cl)c3N2)cc1 (stereo not given),inactive: -20.6%
17,Cc1csc(N/N=C/c2ccc([N+](=O)[O-])cc2)n1,inactive: 5.61%
18,Oc1ccccc1/C=N/Nc1cccc2cccnc12,inactive: -36.4%
19,O=C(Cn1cnc2c(oc3ccccc32)c1=O)c1ccccc1,inactive: 0.836%
20,Oc1ccc(-c2nnc(SCC3CCCCC3)o2)cc1,inactive: 3.91%
21,O=[N+]([O-])c1ccc(-n2nnnc2-c2ccccc2)c([N+](=O)[O-])c1,inactive: 2.45%
22,Cc1[nH]c2ccccc2c1C(=O)CCl,inactive: -3.71%
23,Fc1cccc(Cl)c1CSc1nnc(-c2ccncc2)o1,inactive: 4.01%
24,COC(=O)c1ccc(COc2ccc(C)cc2[N+](=O)[O-])o1,inactive: 2.9%
25,NC(=O)c1cc([N+](=O)[O-])ccc1NCc1ccc(N)cc1,inactive: -10.9%

# Of the compounds above, these have fluorine:
row,Compound,"activity change, negative = decreased viability"
16,Cc1ccc(C2CC(C(F)(F)F)n3nc(C(=O)NCc4c(C)nn(C)c4C)c(Cl)c3N2)cc1 (stereo not given),inactive: -20.6%
23,Fc1cccc(Cl)c1CSc1nnc(-c2ccncc2)o1,inactive: 4.01%
